PubChem BioAssay AID1259254, NCATS – 2017
This is a random part of about 59,000 reagents tested. About 1,550 of all reagents (2.6%) were called active. 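G2 share is only a proxy for re-replication; each gene was hit by three separate siRNAs, and active genes were retested.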 Not all columns of the deposit are shown. The record does not give: the amount of reagent.

Assay: 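Finding genes that stop cells copying their DNA twice in one cycle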 (primary screen)
Cell system: human HCT116 colorectal cancer cells
Reagent: single siRNA against human genes
Timing: 3 days
Detection: 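Nuclei stained with Hoechst and imaged; cell-cycle phase assigned by DNA content; G2 share scaled per plate, non-targeting siRNA 0%, GMNN siRNA 100%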
Direction: G2 robust z-score and G2 cells, % of GMNN control: higher = more G2 cells, more excess DNA replication
Active means: 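An siRNA counts as active if its G2 robust z-score lies at least 5 MADs above the screen median; here such calls match roughly 38% of GMNN control or more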

IL5RA [SID160775717] | G2 robust z-score: -0.892; G2 cells, % of GMNN control: -3.31; Outcome: inactive
IL5RA [SID160775718] | G2 robust z-score: -0.344; G2 cells, % of GMNN control: 0.55; Outcome: inactive
IL5RA [SID160775720] | G2 robust z-score: 1.38; G2 cells, % of GMNN control: 12.7; Outcome: inactive
SLC32A1 [SID160757817] | G2 robust z-score: -0.184; G2 cells, % of GMNN control: 1.67; Outcome: inactive
SLC32A1 [SID160757818] | G2 robust z-score: -0.276; G2 cells, % of GMNN control: 1.03; Outcome: inactive
SLC32A1 [SID160757819] | G2 robust z-score: 0.931; G2 cells, % of GMNN control: 9.52; Outcome: inactive
CA1 [SID160731538] | G2 robust z-score: -0.574; G2 cells, % of GMNN control: -1.07; Outcome: inactive
CA1 [SID160731624] | G2 robust z-score: 0.422; G2 cells, % of GMNN control: 5.93; Outcome: inactive
CA1 [SID160731716] | G2 robust z-score: 2.28; G2 cells, % of GMNN control: 19; Outcome: inactive
LRRC31 [SID160749422] | G2 robust z-score: 0.163; G2 cells, % of GMNN control: 4.12; Outcome: inactive
LRRC31 [SID160749423] | G2 robust z-score: 1.53; G2 cells, % of GMNN control: 13.7; Outcome: inactive
LRRC31 [SID160749424] | G2 robust z-score: -0.3; G2 cells, % of GMNN control: 0.858; Outcome: inactive
IL34 [SID160758359] | G2 robust z-score: -0.476; G2 cells, % of GMNN control: -0.385; Outcome: inactive
IL34 [SID160758360] | G2 robust z-score: 4.2; G2 cells, % of GMNN control: 32.5; Outcome: inactive
IL34 [SID160758361] | G2 robust z-score: -0.128; G2 cells, % of GMNN control: 2.07; Outcome: inactive
PLXNB3 [SID160714521] | G2 robust z-score: 2.05; G2 cells, % of GMNN control: 17.4; Outcome: inactive
PLXNB3 [SID160714522] | G2 robust z-score: -0.755; G2 cells, % of GMNN control: -2.34; Outcome: inactive
PLXNB3 [SID160714523] | G2 robust z-score: 0.917; G2 cells, % of GMNN control: 9.42; Outcome: inactive
